Here are results for 108 sequences from PubChem BioAssay AID1347426 (Functional Genomics Laboratory (NCATS/FGL), 2020).

About 1,400 (4.5%) of roughly 31,000 sequences were called active.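 The calls were made as follows: active = median seed-adjusted z-score above 1 or below -1; inactive = the rest.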 The list shows a part of the results.

This assay is described as follows: Novel Modifiers of Survival Motor Neuron (SMN) Protein: Gene Identification via Genome-wide siRNA Screen.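 Also: luminescence tracks full-length SMN protein made from the SMN2 reporter.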 The conditions noted are these: HEK293T SMN2-luciferase reporter, siRNA knockdown, 72 h; actives lie on both sides. Put shortly:
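Each of three siRNAs per gene is reverse-transfected (1 pmol) into reporter HEK293T cells whose luciferase output tracks SMN protein level. After 72 h culture, ONE-Glo luminescence is control-normalized, log10-transformed and MAD-standardized; Common Seed Analysis deprioritizes seed-driven hits.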
With GCACUUAAUAAGAAUGAAUTT against GPX5, the median seed-adjusted z-score was inactive: 0.0205.

Turning to CCAGUCAUCUGGUUUGUUUTT against RABL2B, the median seed-adjusted z-score is inactive: 0.454.

On to CCCUCUACGUGCACAUGUUTT against MC3R, for which the median seed-adjusted z-score is inactive: 0.424.

With GCCUAUCAAUUGUUCGGGATT against TTF1, the median seed-adjusted z-score is active: 1.76.

As for CAUGAACUCUGGAAACAGUTT against POP4, the median seed-adjusted z-score is inactive: -0.144.

On to CCUUGGAACCUUUGAAAAATT against ANP32B, for which the median seed-adjusted z-score was inactive: 0.

As for AAAAGAUAAUUAUCCAUGATT against LILRA3, the median seed-adjusted z-score was inactive: -0.548.

For the sequence UUAUCACAGAGCAACCUAATT against NUBPL, the median seed-adjusted z-score was inactive: 0.105.

Take CAACUUCACUCAGAACCCATT against MARCO: the median seed-adjusted z-score was inactive: 0.137.

Turning to GCAAAGACCUUACGAGAAUTT against RIPK1, the median seed-adjusted z-score was inactive: -0.0157.

Regarding CCAUCUCCUCUGAAACGUATT against RREB1, the median seed-adjusted z-score is inactive: -0.414.

Turning to GUAAUUACCCAGAUCCUAUTT against PIK3CA, the median seed-adjusted z-score is inactive: 0.0823.

GAUUGAUCCUCAUGCUCCATT against LANCL1: the median seed-adjusted z-score is inactive: 0.

On to CCAAGAUGCUAUUCGUUGATT against SERPING1, for which the median seed-adjusted z-score is inactive: -0.244.

On to CGAUGUGCCUAAUCCAGUUTT against CYP51A1, for which the median seed-adjusted z-score was inactive: -0.242.

CCUGGGUGAUCGUCAGGUATT against GIPR: the median seed-adjusted z-score is inactive: 0.475.

Take CACUCUUUACCUUCGCUUUTT against SHOC2: the median seed-adjusted z-score is inactive: -0.403.

Take GCAUGAAUCUAUUGGACCATT against TFAP2B: the median seed-adjusted z-score was inactive: 0.

On to GCAUCGUGGUGUCAAGUCATT against ZBTB12, for which the median seed-adjusted z-score is inactive: 0.0993.

Take CAAAGAUCGUAUCUGUAGATT against SDPR: the median seed-adjusted z-score was inactive: -0.0738.

UAUCGUCGCGAUUACAGAATT against BCLAF1: the median seed-adjusted z-score is inactive: -0.823.

As for CGAGCAAUACGGUGAGCAATT against PTRF, the median seed-adjusted z-score was inactive: -0.0151.

On to CGGAAACUCCUGUCGAUGATT against KIF26B, for which the median seed-adjusted z-score was inactive: -0.153.

Regarding GCGUGGAUCUCAACAGGAATT against CPA5, the median seed-adjusted z-score is inactive: 0.141.

With GGGCGGUUGUCUACAGCAATT against GNAI2, the median seed-adjusted z-score is inactive: 0.

GCCCAUAGAGGGUUCAGAATT against CCNT1: the median seed-adjusted z-score was inactive: -0.72.

As to GCAUUGCUCUUGCACCAGATT against ZNF337, the median seed-adjusted z-score is inactive: 0.104.

Consider GCAUGGAGGUCGUAUCUAUTT against TINAGL1, for which the median seed-adjusted z-score is inactive: -0.059.

Consider GAAUGCCUAUCGGACACUATT against PLSCR4, for which the median seed-adjusted z-score was inactive: -0.543.

For the sequence GACAGAUAAUGGGAAUUUUTT against RPIA, the median seed-adjusted z-score was inactive: 0.0803.

Consider CCUUAUUGAGCAUCAAAGATT against ZNF189, for which the median seed-adjusted z-score was inactive: 0.0743.

Regarding CAGGUACAGUGAUUGCUCUTT against PCDHGA11, the median seed-adjusted z-score is inactive: 0.0518.

Turning to GAUCUUUGGUCACAAUACATT against ZNF28, the median seed-adjusted z-score is inactive: 0.814.

Take GCUCAAAUGCUAGUACUAUTT against FOXO1: the median seed-adjusted z-score is inactive: 0.0591.

For GGUCUUGACUUCCACCAUATT against ZNF222, the median seed-adjusted z-score is inactive: 0.13.

With GAUUUAUGCUAGCUCUAAATT against CFL2, the median seed-adjusted z-score was inactive: -0.148.

For GAGCGACUCUUCGACGAGATT against SHOX, the median seed-adjusted z-score is inactive: 0.316.

For GGCACGGUUUUGGUCGAAATT against FREM2, the median seed-adjusted z-score is inactive: 0.143.

As to CCACCAAUGUAGUCUAUCATT against PAPSS2, the median seed-adjusted z-score is inactive: -0.201.

Consider CAUGUUGUUUUAUCGGAAATT against USP40, for which the median seed-adjusted z-score is inactive: 0.00437.

GCUGCUCUCUUUCUGUAUATT against PIGO: the median seed-adjusted z-score was inactive: -0.218.

In the case of GGAGAAUUACGUUUUAAUUTT against DOT1L, the median seed-adjusted z-score is inactive: 0.164.

With CUGUCGUUAUUGGAUAACATT against MGA, the median seed-adjusted z-score is inactive: 0.0136.

GCUCUAUGUCUACAUCAAUTT against DAXX: the median seed-adjusted z-score is inactive: 0.349.

GACCAGUCCUUGUCUAUGATT against MED1: the median seed-adjusted z-score was inactive: -0.855.

Turning to ACAGUGUGGUUCUUCAUUUTT against C1QL3, the median seed-adjusted z-score is inactive: -0.276.

In the case of UCUCAGAACCUACACCUGATT against LENG9, the median seed-adjusted z-score was inactive: 0.607.

For GGAAAGAAGUGUCAGUCUUTT against PLG, the median seed-adjusted z-score is inactive: 0.00473.

On to UGGUACGGCUGAUCAACAATT against SIL1, for which the median seed-adjusted z-score was inactive: 0.0292.

On to GGAGGGACAAUGCUGCAUATT against SIGLEC6, for which the median seed-adjusted z-score was inactive: 0.0176.

With CUACCUUACAGGGAUUAUATT against HMGCR, the median seed-adjusted z-score is inactive: 0.00174.

As to CCUAAUACCUUGCAAAGAATT against MPP6, the median seed-adjusted z-score was inactive: -0.625.

Turning to GGUUAAUUGAGAAUAGAAATT against ACTG1, the median seed-adjusted z-score is inactive: -0.227.

With GACUUUGACUAUUCCGUCUTT against NLGN3, the median seed-adjusted z-score is inactive: -0.0279.

For the sequence GUCCCGCAGAUUCAACAAATT against SSBP3, the median seed-adjusted z-score was inactive: 0.00592.

Consider GGAAGAUUCAGUUAACAUUTT against NUDT3, for which the median seed-adjusted z-score is inactive: 0.674.

Take GAAGCUUGAUCUAAUUAUATT against ZNF182: the median seed-adjusted z-score is inactive: 0.

For the sequence GAGUUAUGCAAGACAGUAUTT against MYSM1, the median seed-adjusted z-score was inactive: -0.116.

As to CCAGGAGAAUUGUUAGUGATT against GATA5, the median seed-adjusted z-score was inactive: 0.15.

Consider GAUACGACAUGGAAUCAUUTT against ACTR3B, for which the median seed-adjusted z-score is inactive: -0.301.

With GGAGACUAAUGAACUUCAATT against AK5, the median seed-adjusted z-score was inactive: -0.0461.

With GGAGUUCAUCAAUAUGAAUTT against MLF1, the median seed-adjusted z-score is inactive: 0.258.

Turning to GACCUGCUCUGUAACCUCATT against NAALADL1, the median seed-adjusted z-score is inactive: -0.0444.

Regarding GGCACGAUGUCAUCGAAUUTT against CHD8, the median seed-adjusted z-score was inactive: -0.158.

As to GCAUGAAGGACGACAGCAATT against TNNC1, the median seed-adjusted z-score was inactive: 0.442.

Take GCUGACGAAUAUGACCCUATT against RBM17: the median seed-adjusted z-score was inactive: 0.

Consider GACCUACAAAUGCAAGGAATT against ZNF80, for which the median seed-adjusted z-score is inactive: 0.906.

Take GCGACUACAUUGACCAGCUTT against MAPK11: the median seed-adjusted z-score was inactive: 0.0663.

Consider GUCCGUUAACUAUCUGUUATT against GNAI3, for which the median seed-adjusted z-score is inactive: 0.0656.

On to GUGACUCCGUGUAUACUUATT against GCA, for which the median seed-adjusted z-score was inactive: -0.162.

For the sequence GAAUGAUGUUAUAAAUCGATT against CENTB2, the median seed-adjusted z-score is inactive: 0.

For the sequence GUCUGAGCGAGAGCAUUUATT against RAPSN, the median seed-adjusted z-score was inactive: 0.143.

For the sequence GCCUCUUCACCACCCACAATT against EPOR, the median seed-adjusted z-score was inactive: -0.084.

As for GGAGCACAAGUUAAAGGUUTT against ELAC2, the median seed-adjusted z-score is inactive: 0.016.

Turning to GGCUGGAGGAAAUCGCUGATT against GUCA2A, the median seed-adjusted z-score is inactive: 0.121.

Consider GGUUUGUAGCUGCAACUGUTT against SLC4A8, for which the median seed-adjusted z-score is inactive: -0.474.

As to CACCCUGCAGAAUCACUAUTT against PARN, the median seed-adjusted z-score was inactive: -0.0061.

Take GGGACGAGAUCGUUAGCUATT against VWF: the median seed-adjusted z-score was inactive: 0.159.

Take GCAUAGACGGACAUCUGAATT against ABLIM3: the median seed-adjusted z-score is inactive: -0.29.

As to CGGCCGUACUAUAAAUGGATT against ADH4, the median seed-adjusted z-score was inactive: -0.0991.

As for CAAGGUUUUUAGUCGAAGATT against ZNF816A, the median seed-adjusted z-score is inactive: 0.39.

GCCUGUCUGUGCACAUCGATT against SNTA1: the median seed-adjusted z-score is inactive: 0.212.

Turning to GAGCAUUUGUGCGCAAGUUTT against NRP2, the median seed-adjusted z-score was inactive: 0.477.

CCACUGCGUAUAUCACUUUTT against NPTN: the median seed-adjusted z-score is inactive: 0.133.

In the case of GAUAAACUGCGGCUAAAGATT against EIF3J, the median seed-adjusted z-score was inactive: -0.411.

UAAACUCGUUAGUCAAUUATT against SLC7A9: the median seed-adjusted z-score is inactive: 0.194.

Consider GCAACAGCACAAUCCAGGATT against FUBP3, for which the median seed-adjusted z-score was inactive: 0.108.

As to GGAUGGGAACAACCCUGCATT against HMGN4, the median seed-adjusted z-score was inactive: -0.0471.

Regarding GGAUUUACGAGGAUGUAGATT against CALU, the median seed-adjusted z-score was inactive: 0.123.

CCACAUCCGAGAGAACAUUTT against MYBPH: the median seed-adjusted z-score was inactive: 0.0513.

As to GGAUUGGAACGAGUUACUATT against DARS, the median seed-adjusted z-score is inactive: 0.

CAGCCGUUUUGGGAAGUAUTT against MYO5A: the median seed-adjusted z-score is inactive: 0.00798.

For the sequence GCCGGUGCUUUAUCUCAUUTT against GPR87, the median seed-adjusted z-score is inactive: 0.237.

Consider CAUCUAGGAUUUUAAGGGATT against ASGR1, for which the median seed-adjusted z-score was inactive: -0.128.

For CCGUCUAUAUGGAGUCUUUTT against ROR1, the median seed-adjusted z-score was inactive: -0.0044.

With “CCAAGAAUUUUGACGGUUUTT against DKFZP586H2123”, the median seed-adjusted z-score is inactive: -0.38.

As for GGCUCUUUCGAGAAGCGAATT against MMP15, the median seed-adjusted z-score was inactive: -0.0489.

As to GAGUUCAUCCCUAACCGUATT against ZNF568, the median seed-adjusted z-score is inactive: 0.501.

On to GUACUGGAGUGAUGAGUUUTT against PARP12, for which the median seed-adjusted z-score was inactive: -0.287.

As for GCAGUUGCCCAAUACCAGATT against CMBL, the median seed-adjusted z-score was inactive: 0.

GCCUUACACUGUGCUAAUATT against PDE10A: the median seed-adjusted z-score was inactive: -0.382.

Turning to AGAGCAUCCUAAACGACCATT against SMUG1, the median seed-adjusted z-score is active: -1.38.

Turning to GACCCAACUUCGAUACCUATT against TLR8, the median seed-adjusted z-score is inactive: 0.

For the sequence CACUGAAAGCUGUAACUCUTT against SRY, the median seed-adjusted z-score was inactive: -0.949.

GUAAUGAUCCCAUAUCAGATT against CYLC1: the median seed-adjusted z-score is inactive: 0.177.

For the sequence GGAGCAUACAGAUGUCUGATT against BRS3, the median seed-adjusted z-score is inactive: 0.224.

In the case of GAUGGGUUCUUGAACAUAUTT against EXOG, the median seed-adjusted z-score was inactive: 0.746.

For the sequence GAUCGGAAAUUGCAUAGUATT against BTBD10, the median seed-adjusted z-score is inactive: 0.695.
